According to PubChem BioAssay AID2685 (National Center for Advancing Translational Sciences (NCATS), 2010):
This is one part of the list. The main result of the screen is listed elsewhere. These columns were measured beside it and carry no call. The list favours compounds with an active or inconclusive main result. Potencies come from curve fits of mixed quality, noted in brackets.

Test: qHTS Assay for Lipid Storage Modulators in Drosophila S3 Cells;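 for cell number change: cells counted by Cell Tracker Red CMTPX staining in the red channel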
Conditions: BODIPY lipid droplet fluorescence, 18-24 h; for cell number change: measured here: cell count max response, cells fed with added oleic acid
Procedure, shortened: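 Laser-scanning cytometry quantifies lipid droplet accumulation (500–530 nm total intensity; droplet/cell object ratio) in oleic acid-fed (400 uM added) Drosophila S3 cells treated with a concentration series. 20 uM Triacsin C defined 100% inhibition.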

[1] = measured here: cell number channel AC50, cells fed with added oleic acid
[2] = measured here: lipid fluorescence (Fed channel) AC50, cells fed with added oleic acid

Row | SMILES | cell number change | AC50 [1] | AC50 [2]
1 | Cc1ccc2cc(CN(CC(C)C)S(=O)(=O)c3ccccc3)c(=O)[nH]c2c1 | -14.4% | – | –
2 | COc1ccc(N2C(=O)N[C@@H](Cc3ccccc3)C2=O)cc1OC | 40.1% | 4610 nM [rising, full curve] | –
3 | CCOC(=O)c1c(NC(=O)CC)sc(C(C)=O)c1C | -9.28% | – | 920 nM [rising, full curve]
4 | CN1C(=S)SC(/[N+]([O-])=C/c2cccnc2)C1(C)C (stereo not drawn) | -3.86% | – | 164 nM [falling, full curve, poor fit]
5 | CCOc1cccc(-c2nn(-c3ccccc3)cc2/C=C(/C#N)C(=O)NCCCn2ccnc2)c1 | -79.3% | 20600 nM [falling, single point] | 130 nM [falling, full curve, poor fit]
6 | CC(C)(C)C(=O)Nc1cc(NC(=O)C(C)(C)C)cc(C(=O)NNC(=O)c2ccncc2)c1 | 30.1% | – | 580 nM [falling, single point]
7 | COC(=O)c1ccc(Cn2nnc3c(=O)[nH]c(C4CCCN(S(=O)(=O)c5ccccc5)C4)nc32)cc1 (stereo not drawn) | -12.7% | – | –
8 | Cc1cc(OCC(=O)NCCCN(C)C)cc(C)c1Br | – | – | 580 nM [rising, single point]
9 | CCc1nccn1CCC(=O)NC1CCCc2c1cnn2-c1ccc(F)cc1F (stereo not drawn) | 13% | – | 4110 nM [rising, single point]
10 | COCc1cc(C)nc(OCC(=O)N/N=C/c2cc(C)n(-c3c(C)cccc3C)c2C)c1C#N | -15.2% | – | 10300 nM [rising, partial curve]
11 | Cc1ccc(S(=O)(=O)N2CCN(c3ccc(N4CCOCC4)nn3)CC2)cc1[N+](=O)[O-] | 34% | 1640 nM [rising, full curve, poor fit] | –
12 | CCOC(=O)Cc1nnc(Nc2cccc(C)c2)c2ccccc12 | – | 461 nM [rising, single point] | 1460 nM [rising, partial curve]
13 | O=C(Cn1cnnn1)NCCc1ccc(Cl)cc1Cl | 10.3% | – | 29100 nM [rising, single point]
14 | Cc1cc(C)nc(NS(=O)(=O)c2ccc(NC(=O)NC3CCCCC3)cc2)n1 | -32% | 1460 nM [falling, full curve, poor fit] | 5800 nM [falling, full curve]
15 | COCCn1c(COc2cccc(OC)c2)nnc1SCC(=O)NC1CCCC1 | 32.2% | 1030 nM [rising, full curve, poor fit] | 8200 nM [rising, partial curve]
16 | COC(=O)[C@@]1(Cc2ccc(F)cc2)[C@H]2c3cc(C(=O)N(C)C)n(Cc4ccccn4)c3C[C@H]2CN1C(=O)c1ccccc1 | -16.6% | – | 16400 nM [falling, single point]
17 | Cc1ccc(C(=O)N2CCN(S(=O)(=O)c3ccccc3C#N)CC2)cc1S(=O)(=O)N1CCOCC1 | -10.4% | – | 32600 nM [rising, partial curve, poor fit]
18 | C=CCNC(=S)NNc1nc2c(c(=O)[nH]1)C1(CCCC1)Cc1ccccc1-2 | -35.8% | 20600 nM [falling, single point] | 20600 nM [falling, single point]

Row | SMILES | cell number change | AC50 [1] | AC50 [2]
19 | O=C(NCCCNC(=O)c1ccc(-c2cccc(Cl)c2)o1)c1cnccn1 | 19.7% | 651 nM [rising, full curve, poor fit] | 35500 nM [rising, single point]
20 | Cc1ccccc1C(=O)OCC(=O)NCC1COc2ccccc2O1 (stereo not drawn) | -18.5% | 2910 nM [rising, single point] | –
21 | O=C(/C=C/c1cccc(F)c1)Nc1nccs1 | 59% | 9200 nM [rising, partial curve] | –
22 | O=C(CCC(=O)N1CCOc2ccccc21)NCCCc1ccccc1 | -2.02% | – | –
23 | CCOC(=O)c1cc(C(C)=O)c(=O)n(C)c1N | -3.1% | 116 nM [falling, full curve, poor fit] | –
24 | COc1ccc(C(=NNc2ccccc2C(=O)O)c2ccc(OC)cc2)cc1 | -40.4% | 29100 nM [falling, single point] | –
25 | CCc1cc(C(N)=O)c(NC(=O)c2ccc(OC)cc2)s1 | 17.3% | – | 2310 nM [rising, full curve, poor fit]
26 | CCc1ccc(-c2nn[nH]n2)cc1 | -27.5% | 92 nM [falling, full curve, poor fit] | 65.1 nM [falling, full curve]
27 | O=C(CC1C(=O)NCCN1Cc1ccc(F)cc1Cl)NCc1ccon1 (stereo not drawn) | 0.59% | – | 6510 nM [rising, partial curve, poor fit]
28 | Cc1c(-n2cc(C(=O)c3cc(Br)ccc3O)cc(C#N)c2=O)c(=O)n(-c2ccccc2)n1C | – | 58 nM [falling, full curve, poor fit] | 116 nM [falling, full curve, poor fit]
29 | CC1CC(C)CN(C(=O)COC(=O)CCCN2C(=O)c3cccc4cccc(c34)C2=O)C1 (stereo not drawn) | -13.8% | – | 103 nM [falling, full curve, poor fit]
30 | COc1ccc(C(=O)NNS(=O)(=O)c2ccc(OC)cc2)cc1 | -5.25% | – | 29100 nM [rising, single point]
31 | Cn1c(CNC(=O)c2ccco2)nnc1SCC(=O)N1CCN(c2ccccc2F)CC1 | -7.62% | – | –
32 | O=C(CCc1c[nH]c2ccccc12)N1CCN(c2ccc(F)cc2)CC1 | 12.6% | 631 nM [falling, full curve, poor fit] | –
33 | COc1ccc(CCNC(=O)c2ccc(Cl)c(S(=O)(=O)N3CCCCCC3)c2)cc1 | -21.6% | – | 651 nM [falling, partial curve, poor fit]
34 | CCCc1cc(C(=O)Nc2ccc(F)c(Cl)c2)no1 | 24.2% | – | 25900 nM [rising, single point]
35 | COc1ccc(NC(=O)CN2CCC(NC(=O)C3CCCCC3)CC2)cc1 | 16.3% | – | 2060 nM [rising, full curve, poor fit]
36 | CCN(Cc1ccccc1)C(=O)c1ccc(C)c(S(=O)(=O)N2CCCCC2)c1 | -21% | – | 6510 nM [falling, single point]

A second format for some results above:
Row,SMILES,cell number change,AC50 [1],AC50 [2]
22,O=C(CCC(=O)N1CCOc2ccccc21)NCCCc1ccccc1,-2.02%,–,–
23,CCOC(=O)c1cc(C(C)=O)c(=O)n(C)c1N,-3.1%,"116 nM [falling, full curve, poor fit]",–
24,COc1ccc(C(=NNc2ccccc2C(=O)O)c2ccc(OC)cc2)cc1,-40.4%,"29100 nM [falling, single point]",–
